The values below come from PubChem BioAssay AID1347423 (Functional Genomics Laboratory (NCATS/FGL), 2020).

Screen size: about 52,000 sequences; about 210 (0.4%) were called active.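 Rule for the calls: active = gene whose silencing raises cell survival under the drug, median off-target-corrected z-score across its silencing RNAs 2 or more; inactive = the rest.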 The list shows a part of the results.

This assay can be described thus: Resistance to Poly (ADP-Ribose) Polymerase inhibitor: Gene Identification via Genome-wide siRNA Screen. The note with it: mouse BRCA2 R2336H ES cells, olaparib, CellTiter-Glo viability; hits give high values. A digest of the protocol: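 Genome-wide siRNA screen (3 siRNAs/gene, 20 nM) in mouse ES cells carrying hypomorphic BRCA2 R2336H; olaparib 500 nM added 48 h post-transfection, CellTiter-Glo viability 72 h later. Normalized to plate-median negative control; MAD z-scores, gene median, seed-adjusted.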
As to CGCAGGAUAUUUCUAUCCATT against Prlpn, the z-score is inactive: -0.152.

On to GCGUGGAGUCUUCAGUCAUTT against Vhlh, for which the z-score was inactive: 0.976.

Consider GGCUCAAGACUUAAAUUCATT against Olfr1100, for which the z-score was inactive: 0.00946.

Consider CGCCUUUUGGAAACGCAAATT against Sh3bp4, for which the z-score is inactive: -0.514.

Consider GGCUAUGUACAAGACUAUGTT against Eif3s1, for which the z-score is inactive: 0.504.

GGUCAAAGAACAAAAAGAATT against Ly64: the z-score is inactive: -0.59.

In the case of GCGCAUAUUUUAUCAACUCTT against Plcb3, the z-score was active: 1.31.

With CCACCGUCUAUUUCAUUGUTT against Adora3, the z-score was inactive: -0.683.

Take CCUCUAGGUCAUUUUACCUTT against Scmh1: the z-score was inactive: -0.281.

For the sequence GGUUGUGCAGUUUUAUUUCTT against Tceal1, the z-score is inactive: -0.679.

Consider “GGUCAGAAGAGAUCAAAAGTT against 1600012K10Rik”, for which the z-score was inactive: -0.0376.

GGUCUUAUCAAGAAGUGUATT against Cpt1b: the z-score is inactive: -1.98.

In the case of GGCAGCUGGAUCUCUUUGATT against Txnl5, the z-score is inactive: -0.0989.

As for GGUUUUGUUACAAUAAAGGTT against Fbxl6, the z-score is inactive: 0.426.

Regarding GGAGAGCUGGAACAAUAGCTT against Bcl2l2, the z-score is active: 2.66.

CCAACCAAAUCGUCGCCAUTT against Cdk7: the z-score was inactive: -1.68.

GGAUAAUGACCAACCUUCUTT against Fbxo7: the z-score was inactive: -1.81.

With GGCACAGGUUCCUUUUGAATT against Myct1, the z-score was inactive: -0.647.

In the case of GGGCCAUUCAAACCACCAGTT against Vav3, the z-score was inactive: -1.01.

CCUUUUUGGGUUGCUCUGUTT against Slc39a1: the z-score is inactive: -0.253.

With GCUAACGAUAUUUAUCACGTT against Olfr385, the z-score was inactive: 0.561.

Turning to GGGAGAGAGAAAUUCAUAATT against Mtpn, the z-score was inactive: -2.04.

With CCAUAAAAACCAGAGAAAUTT against Plekhf2, the z-score is inactive: 0.374.

Consider GGUCUACGUGGCCAAAGUGTT against Txndc5, for which the z-score was inactive: -2.1.

In the case of CGACAUGGGAUUUGGCUUGTT against Rplp2, the z-score is inactive: -2.47.

For GCUCGUACAGAAAUACGUCTT against Psmc2, the z-score is inactive: 0.0275.

GCCUUAUCCAUAUCGACUATT against Arrdc1: the z-score was inactive: 2.55.

As to GGAUAUCGAAGUGACAUCUTT against Rae1, the z-score is inactive: -1.48.

For GGACAGUCUUUAGCUGAAATT against Slc2a10, the z-score is inactive: 1.53.

Regarding CCACGGAGAUGAAAUGCCUTT against Umpk, the z-score was inactive: 0.929.

Turning to GGAAAUAAUCAGGUUUAUCTT against Col4a3, the z-score is inactive: -0.281.

Turning to CCUGGCAGUAAUCACCAUUTT against Olfr1158, the z-score is inactive: -0.361.

As to GGAAACAGAACAAGAUGUATT against Tnfsf13b, the z-score was inactive: -1.05.

For GGGCAAUUAGUAAAGGCUATT against Eif2s3x, the z-score was inactive: -1.15.

Regarding “GGAGCCGAAAAAGAUGACCTT against D11Ertd730e”, the z-score is inactive: -0.651.

For GGAAAUGAGCAAAACUUUUTT against Pcdhb22, the z-score is inactive: 1.65.

For GGAGAAAGCUCAGCAUACATT against Usp3, the z-score is inactive: -0.372.

“GGAUUGAAGAGAAUUUACCTT against 5730419I09Rik”: the z-score is inactive: 0.00715.

Take CGAGCUAGAAGAGCUUCCATT against Hdgfrp2: the z-score is inactive: -1.97.

Consider GGUCGUUACAGAAGAGUUUTT against Mageh1, for which the z-score was inactive: 1.57.

As to CCUUCAGAAGUCGACUUGUTT against Rpl37, the z-score was inactive: -3.28.

Regarding GCCGAGAUGAGCUCCUAAUTT against Krt1-c29, the z-score was inactive: -0.0719.

For GGGCAGAAAAUCAUUUGUUTT against Anxa11, the z-score is inactive: -1.29.

Regarding GGAGAUCCAGGCAAUUUUUTT against Pink1, the z-score was inactive: 0.908.

For the sequence “GUGGUUUAACAUGAAGUCATT against A530094I17Rik”, the z-score is inactive: -0.685.

Regarding GGUGCAAGUUCCCAUUAUATT against Mcpt7, the z-score was inactive: 0.747.

As for GCUGAAGUUUACUAUAACATT against Marco, the z-score was inactive: 0.663.

For the sequence GGUGGUCUGGUUCAAGGAUTT against Mylk, the z-score is inactive: -0.558.

As to “CCCUUAAUCUUGCAUACUUTT against 7030401O21Rik”, the z-score is inactive: 0.545.

As for GGCCUGCAUAGAUGAGAACTT against Ppp1r12c, the z-score is inactive: -0.701.

Take GUCUAUCCAGCAUCCUUGCTT against Prss19: the z-score is inactive: 0.708.

As for “GGUGCAUUCUUAGUAUACUTT against D230012E17Rik”, the z-score was inactive: -2.23.

As to GGACACAUUCGAAUGAACCTT against Mkrn2, the z-score is inactive: 0.532.

For GGUCCUACAGGAGAAGAUCTT against Tekt2, the z-score is inactive: -0.0665.

For the sequence GGUUCCUUAAUCACUUUGCTT against Ndufa9, the z-score is inactive: -0.991.

Regarding GGAAGAACUUCAGGAAAAUTT against Micl, the z-score is inactive: 1.41.

For the sequence GGGUAUACCUAUCAUAGUATT against BC020354, the z-score was inactive: 0.0881.

Take GCAAUGAAUUCUAUUAUGGTT against Plrg1: the z-score was inactive: -2.57.

Turning to GGAUUAGUCAUCAUCUUCATT against Gabrb2, the z-score was inactive: -0.0587.

“GGAGAAGCCUCAUCAACCATT against A930008G19Rik”: the z-score was inactive: -0.715.

Turning to “GGGCAAGAUGUUUUUCUUCTT against 0610009O03Rik”, the z-score is inactive: 0.0444.

Regarding GGACCUAAACAACGUGUUGTT against Klf2, the z-score is inactive: 0.679.

Turning to GCAUCCCAAGCUUAAAGCGTT against Malt1, the z-score was inactive: 1.14.

Consider CCCAGUGUGAACAGAGGCATT against Xlr3a, for which the z-score was inactive: -1.6.

As for CCAUUCAAGUAAAUGAACCTT against Efhc2, the z-score was inactive: -0.291.

On to GGUCUGUCGGAAAAUCUGGTT against Hrbl, for which the z-score was inactive: -0.608.

Take GCAUAAACAGUGAAGCCACTT against Suv39h2: the z-score is inactive: 0.931.

For “GCCUUAUCUAAAAGCCAAGTT against 2610318C08Rik”, the z-score is inactive: -0.294.

Regarding GGACAUCUGUGUUUAUUCATT against Tcfcp2, the z-score is inactive: 1.49.

With GCAUUGAAGAUCGAACACGTT against Fbxl11, the z-score was inactive: -0.551.

GGUGAAAGACCAUUUAUUUTT against BC003332: the z-score was inactive: 0.283.

On to “GGACUUAUCUCAUCCAAGATT against C630010N09”, for which the z-score was inactive: 0.308.

For ACAAGUUUGAUACCGAAUUTT against Chic1, the z-score was inactive: -0.478.

In the case of “GCGAAGAGUCAAAUCCAUCTT against 5830472H07Rik”, the z-score is inactive: 2.06.

Consider GGCCAUUGCAUUCAUUGAUTT against Dusp9, for which the z-score was inactive: -0.355.

For the sequence “CCACAGGGAGACAUGAUAUTT against 2410022L05Rik”, the z-score was inactive: -1.6.

In the case of CGUACAAAGGUAGUAUACCTT against Pi4k2a, the z-score was inactive: 0.876.

Regarding GGAAGAAGCAAAGAGGUCCTT against Foxm1, the z-score was inactive: -0.0681.

Turning to GGAAGAAGUGAAGAUCAUUTT against Acoxl, the z-score was inactive: 0.0654.

For GGCGAAUUAUUGAAAACGUTT against Actr8, the z-score is active: 3.41.

On to “GCUAAAGUUGAUUGGAGAGTT against 3010033P07Rik”, for which the z-score was inactive: -0.694.

As for GGUUGUUUCACCAAUAGUUTT against Idi1, the z-score is inactive: -0.931.

For GGACUGCUUUUUUUACUCATT against Mta2, the z-score is inactive: -0.588.

GCCAACCGUUUUCACAGACTT against Fthfd: the z-score is inactive: 0.332.

As for GCGAAAGCAGCUGUCGGAATT against Nkx3-1, the z-score was inactive: 1.61.

For the sequence GGCACGUCUCUAUUCAAGATT against Rab21, the z-score is inactive: 0.12.

For the sequence “GCGAUCUCACGAGGACUAATT against 9630033F20Rik”, the z-score is inactive: -2.07.

With GGCCACCAAGACCAAUGAUTT against Akap8, the z-score is inactive: 0.631.

For GCCAAAUCAGGGACUGCUATT against Prkaa1, the z-score was inactive: -1.04.

As to GGACAGUGCCACUUAAACCTT against Tbxa2r, the z-score was inactive: 0.769.

In the case of GACUGUGUUUAUUCCUCUGTT against Olfr1450, the z-score is inactive: -0.283.

In the case of GGACCCAGAUGUGACUGAGTT against Svil, the z-score was inactive: 0.0266.

For the sequence GGGUAGGAAACAAACACAGTT against Cox11, the z-score was inactive: 0.188.

With GGAGACAGAAAGAGAAAAGTT against Pou3f2, the z-score is inactive: -0.945.

Take GGUGAACCAAAGACACUUCTT against Pcdhgc4: the z-score was inactive: -1.39.

As to GCUGGAGAUUCGUUACCGCTT against Cxxc1, the z-score is inactive: 0.0186.

“GGAUUUUGGGAAUAGAACUTT against 5830458K16Rik”: the z-score is inactive: -0.367.

Turning to GGAAAUCUUUCUGACAGUCTT against Atoh8, the z-score is inactive: -0.959.

As to GCUCUACUUGUAUAUGCCCTT against Rdhe2, the z-score was inactive: 1.22.

With GCUAACCAAAGUUUUGAGATT against Rbm11, the z-score was inactive: 1.06.

With GGAGGUAGUAGAUUCUUCCTT against Dnase1l1, the z-score was inactive: -0.332.

AGAUGAUGAAAGCUUCUGCTT against Cyp2c40: the z-score is inactive: 0.442.

Regarding GGGAGAAAAUUGGCUUAGATT against Dclre1b, the z-score was inactive: -0.067.

Take CCAGGGUAUAGUUUUCAACTT against BC027344: the z-score is inactive: 0.568.
